Laboratory results taken from PubChem BioAssay AID1487 (National Center for Advancing Translational Sciences (NCATS), 2009).
Some of the results follow. Further columns of the screen follow, without active or inactive calls. Compounds called inactive in the main read-out are mostly missing here. Words in brackets tell the shape of the fitted curve; partial curves, single points and poor fits give uncertain potencies.

Assay: qHTS Assay for Modulators of Lamin A Splicing
Details: HeLa LMNA splicing GFP/RFP minigene ratio, 48 h
In short: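 S3 HeLa stable clones carrying a lamin A-EGFP splicing minigene plus DsRed2 were seeded at 600 cells/well in Opti-MEM with 2% FBS, pin-dosed and incubated 48 h at 37°C. Acumen cytometry (488 nm) gave the GFP/RFP total-intensity ratio.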

[1] = measured here: GFP splicing reporter channel
[2] = measured here: RFP viability control channel

SMILES | AC50 [1] | AC50 [2]
O=C(Cn1c(=O)oc2cc(S(=O)(=O)N3CCCC3)ccc21)NC1CCCc2ccccc21 (centres undefined) | 0.794 µM [falling, partial curve, poor fit] | 0.794 µM [falling, single point]
CCC(Sc1ncccc1C(=O)O)C(=O)N1CCOCC1 (centres undefined) | 0.501 µM [falling, full curve, poor fit] | 0.501 µM [falling, full curve, poor fit]
O=C(COc1ccc(Cl)cc1Cl)N/N=C1\CCCc2ccccc21 | 10 µM [rising, partial curve] | 11.2 µM [rising, partial curve]
CN(C)/C=C/C(=O)/C=C/c1ccc(Cl)cc1 | 22.4 µM [falling, partial curve, poor fit] | 31.6 µM [falling, partial curve]
CCCC(C(=O)OCCN(CC)CC)(c1ccccc1)c1ccccc1 | 0.0224 µM [falling, full curve, poor fit] | 0.501 µM [falling, partial curve, poor fit]
O=C(CN1C(=O)/C(=C/c2c(F)cccc2Cl)Oc2ccccc21)NCc1ccco1 | 3.16 µM [falling, full curve] | –
CCOc1ccc(Br)cc1CNCCSc1nnnn1-c1ccccc1 | – | 0.0631 µM [falling, full curve, poor fit]
COc1ccc(CNS(=O)(=O)NCc2ccccc2)cc1OC | 2.51 µM [falling, full curve] | 10 µM [falling, single point]
CCOC(=O)c1c(NC(=O)CSc2nnc(-c3c[nH]c4ccccc34)n2CCOC)sc2c1CCCCC2 | 17.8 µM [rising, single point] | 35.5 µM [rising, single point]
Cc1ccc2c(c1)C1NC(=S)NC(C)(O2)C1C(=O)Nc1ccc(Cl)cc1 (centres undefined) | – | 0.126 µM [rising, full curve, poor fit]
CC1CN(C(=O)C(C)N2CCN(c3ccccc3Cl)CC2)CC(C)O1 (centres undefined) | 2.82 µM [rising, single point] | –
c1ccc2sc(-c3ccc4c(c3)OCO4)nc2c1 | – | 11.2 µM [rising, partial curve, poor fit]
CCc1ccccc1NC(=O)CN1C(=O)c2cccnc2Oc2ccc(Cl)cc21 | 0.0224 µM [falling, full curve, poor fit] | –
N#C/C(=C\c1cc2ccccc2nc1N1CCOCC1)C(=O)Nc1ccc(N2CCOCC2)cc1 | 35.5 µM [rising, single point] | 35.5 µM [rising, single point]
CC(C)CNS(=O)(=O)c1ccc(OCC(=O)Nc2ccc3c(c2)OCCO3)cc1 | 35.5 µM [rising, single point] | –
Cc1ccc(C)c(NC(=O)C(=O)NCCc2csc3nc(-c4ccccc4C)nn23)c1 | 25.1 µM [falling, partial curve, poor fit] | 3.98 µM [falling, partial curve, poor fit]
CCN(CC)S(=O)(=O)c1ccc(S(=O)(=O)Nc2ccc(C(=O)N3CCCC3)cc2)cc1 | – | 10 µM [rising, partial curve, poor fit]

SMILES | AC50 [1] | AC50 [2]
O=c1c(Cc2c(F)cccc2Cl)c(O)ccn1CC1CCCO1 (centres undefined) | 0.398 µM [rising, full curve, poor fit] | –
COc1ccc(-c2oc(NC(=O)CCl)c(C#N)c2-c2ccc(OC)cc2)cc1 | 35.5 µM [falling, single point] | 35.5 µM [falling, single point]
CC(C)(C)c1ccc(C(=O)Nc2cccc([N+](=O)[O-])c2)cc1 | 15.8 µM [rising, partial curve] | 35.5 µM [rising, single point]
CCOC(=O)c1[nH]c2ccccc2c1NC(=S)Nc1ccccc1 | 1.41 µM [falling, single point] | –
O=C(CC(NC(=O)OCc1ccccc1)C(=O)O)OCc1ccccc1 (centres undefined) | – | 0.794 µM [rising, single point]
COCCN(CCOC)Cc1c(O)ccc2c3c(c(=O)oc12)CCC3 | 15.8 µM [rising, single point] | 15.8 µM [rising, single point]
O=C(CCC1N=C2c3ccccc3N=C(SCc3ccc(Cl)cc3)N2C1=O)NCc1ccco1 (centres undefined) | 35.5 µM [rising, partial curve, poor fit] | –
Cc1c(NC(=O)COC(=O)c2cc(-c3ccc(-c4ccccc4)cc3)nc3ccccc23)c(=O)n(-c2ccccc2)n1C | – | 0.708 µM [rising, full curve]
O=[N+]([O-])c1[nH]cnc1/C=C/c1ccccc1 | 10 µM [rising, single point] | –
COc1ccc2nc3sc(C(=O)NCCCN4CCc5ccccc5C4)cc3cc2c1 | – | 31.6 µM [rising, single point]
COC(=O)c1cc(C)sc1NC(=O)C1C2C=CC(CC2)C1C(=O)O (centres undefined) | 1.26 µM [falling, partial curve, poor fit] | 1.26 µM [falling, partial curve]
COc1ccc(Cn2c(SCC(N)=O)nc3c(sc4ccccc43)c2=O)cc1 | 35.5 µM [falling, single point] | 35.5 µM [falling, partial curve, poor fit]
COCCn1c(SCc2cnc(-c3ccccc3)s2)nnc1-c1ccncc1 | – | 12.6 µM [rising, partial curve]
CN(c1ccc(C(=O)N2CCOCC2)cc1[N+](=O)[O-])C1CCCCC1 | 11.2 µM [rising, single point] | 20 µM [rising, single point]
O=C1CC(N(CCc2ccccc2)C(=S)Nc2ccccc2)C(=O)N1c1ccc(Br)cc1 (centres undefined) | 35.5 µM [falling, single point] | 35.5 µM [falling, single point]
O=C1OCCC1Sc1nc2ccccc2c(=O)n1Cc1ccccc1 (centres undefined) | 0.0794 µM [rising, full curve, poor fit] | –

Part of the list above in order of count of non-hydrogen atoms, rising:
SMILES | AC50 [1] | AC50 [2]
O=[N+]([O-])c1[nH]cnc1/C=C/c1ccccc1 | 10 µM [rising, single point] | –
COCCN(CCOC)Cc1c(O)ccc2c3c(c(=O)oc12)CCC3 | 15.8 µM [rising, single point] | 15.8 µM [rising, single point]
COc1ccc(Cn2c(SCC(N)=O)nc3c(sc4ccccc43)c2=O)cc1 | 35.5 µM [falling, single point] | 35.5 µM [falling, partial curve, poor fit]
